# Data: the supplement of paper PMC10849652
# Sequences of proteins named here, by UniProt entry; tags and fusion partners are left off. A change or cut given only in a name is not applied to a line headed by its entry.
# UniProt P60903, whole entry, looked up: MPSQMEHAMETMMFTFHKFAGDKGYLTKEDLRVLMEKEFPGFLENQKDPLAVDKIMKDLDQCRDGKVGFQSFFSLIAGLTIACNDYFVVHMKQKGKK
# UniProt Q7L099: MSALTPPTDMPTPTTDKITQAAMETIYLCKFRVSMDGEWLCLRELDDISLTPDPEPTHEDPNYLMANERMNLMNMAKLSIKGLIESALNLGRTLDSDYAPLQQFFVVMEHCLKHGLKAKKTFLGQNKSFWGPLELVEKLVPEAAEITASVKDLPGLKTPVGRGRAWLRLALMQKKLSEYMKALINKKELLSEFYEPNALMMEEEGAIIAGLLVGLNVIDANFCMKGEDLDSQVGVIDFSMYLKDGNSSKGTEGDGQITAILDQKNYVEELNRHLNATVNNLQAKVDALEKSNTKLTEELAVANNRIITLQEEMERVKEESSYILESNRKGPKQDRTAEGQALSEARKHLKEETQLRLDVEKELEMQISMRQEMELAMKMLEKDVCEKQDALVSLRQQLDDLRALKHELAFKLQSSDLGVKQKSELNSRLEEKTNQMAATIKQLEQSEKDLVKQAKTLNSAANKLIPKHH
# UniProt Q7L3V2: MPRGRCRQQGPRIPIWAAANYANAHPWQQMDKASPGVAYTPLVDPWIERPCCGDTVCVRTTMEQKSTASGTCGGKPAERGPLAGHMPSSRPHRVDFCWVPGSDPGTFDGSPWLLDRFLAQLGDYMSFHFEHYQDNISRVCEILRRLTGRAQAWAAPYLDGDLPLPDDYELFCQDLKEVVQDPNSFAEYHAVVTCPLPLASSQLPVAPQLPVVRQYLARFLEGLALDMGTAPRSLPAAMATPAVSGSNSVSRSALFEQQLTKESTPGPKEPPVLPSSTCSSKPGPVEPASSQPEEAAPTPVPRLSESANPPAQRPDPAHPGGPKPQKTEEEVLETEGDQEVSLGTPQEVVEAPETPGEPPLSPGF
# UniProt Q15418, whole entry, looked up: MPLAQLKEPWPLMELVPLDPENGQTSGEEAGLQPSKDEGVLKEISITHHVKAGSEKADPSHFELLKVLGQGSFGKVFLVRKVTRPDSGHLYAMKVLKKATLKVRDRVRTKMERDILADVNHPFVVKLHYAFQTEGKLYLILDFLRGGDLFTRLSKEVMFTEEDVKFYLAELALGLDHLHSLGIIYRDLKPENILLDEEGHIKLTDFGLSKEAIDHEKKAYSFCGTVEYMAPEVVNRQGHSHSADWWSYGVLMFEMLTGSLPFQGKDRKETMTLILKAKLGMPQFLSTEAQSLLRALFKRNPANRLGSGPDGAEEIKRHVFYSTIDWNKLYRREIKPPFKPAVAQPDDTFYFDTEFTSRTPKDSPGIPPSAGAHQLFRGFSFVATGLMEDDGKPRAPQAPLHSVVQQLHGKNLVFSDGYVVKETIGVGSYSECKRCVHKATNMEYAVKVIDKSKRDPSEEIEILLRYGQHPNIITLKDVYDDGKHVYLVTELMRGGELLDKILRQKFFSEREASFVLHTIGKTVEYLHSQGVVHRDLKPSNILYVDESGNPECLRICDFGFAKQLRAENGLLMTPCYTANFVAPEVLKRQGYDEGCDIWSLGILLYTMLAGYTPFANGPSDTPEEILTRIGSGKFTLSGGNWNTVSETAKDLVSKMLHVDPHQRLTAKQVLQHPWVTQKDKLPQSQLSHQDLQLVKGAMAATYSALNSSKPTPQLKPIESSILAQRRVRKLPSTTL
# UniProt Q9Y265, whole entry, looked up: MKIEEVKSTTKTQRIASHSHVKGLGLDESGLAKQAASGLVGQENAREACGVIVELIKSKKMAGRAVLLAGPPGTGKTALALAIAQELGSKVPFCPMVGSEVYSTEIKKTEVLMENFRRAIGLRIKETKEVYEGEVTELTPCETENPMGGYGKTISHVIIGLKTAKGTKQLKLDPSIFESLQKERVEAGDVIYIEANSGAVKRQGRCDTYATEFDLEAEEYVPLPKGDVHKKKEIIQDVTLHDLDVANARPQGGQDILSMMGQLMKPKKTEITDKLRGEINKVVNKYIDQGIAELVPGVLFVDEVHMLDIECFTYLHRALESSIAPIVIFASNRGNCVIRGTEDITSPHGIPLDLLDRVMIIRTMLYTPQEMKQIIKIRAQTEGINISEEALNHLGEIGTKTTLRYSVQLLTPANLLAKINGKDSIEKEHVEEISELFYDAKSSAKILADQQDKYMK
# UniProt P31949: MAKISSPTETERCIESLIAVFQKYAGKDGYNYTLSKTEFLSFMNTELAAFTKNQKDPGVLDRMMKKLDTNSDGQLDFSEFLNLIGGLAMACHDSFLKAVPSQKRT
# UniProt O00442: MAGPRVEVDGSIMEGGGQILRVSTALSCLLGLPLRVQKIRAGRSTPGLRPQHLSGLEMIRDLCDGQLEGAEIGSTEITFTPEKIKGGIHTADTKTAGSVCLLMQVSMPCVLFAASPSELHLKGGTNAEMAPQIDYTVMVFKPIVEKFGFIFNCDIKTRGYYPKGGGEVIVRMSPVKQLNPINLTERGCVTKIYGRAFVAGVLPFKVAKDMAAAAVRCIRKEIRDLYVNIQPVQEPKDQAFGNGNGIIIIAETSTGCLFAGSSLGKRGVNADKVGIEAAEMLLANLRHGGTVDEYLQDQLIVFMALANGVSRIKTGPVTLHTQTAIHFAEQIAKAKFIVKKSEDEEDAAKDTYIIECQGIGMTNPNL
# UniProt Q9HA92: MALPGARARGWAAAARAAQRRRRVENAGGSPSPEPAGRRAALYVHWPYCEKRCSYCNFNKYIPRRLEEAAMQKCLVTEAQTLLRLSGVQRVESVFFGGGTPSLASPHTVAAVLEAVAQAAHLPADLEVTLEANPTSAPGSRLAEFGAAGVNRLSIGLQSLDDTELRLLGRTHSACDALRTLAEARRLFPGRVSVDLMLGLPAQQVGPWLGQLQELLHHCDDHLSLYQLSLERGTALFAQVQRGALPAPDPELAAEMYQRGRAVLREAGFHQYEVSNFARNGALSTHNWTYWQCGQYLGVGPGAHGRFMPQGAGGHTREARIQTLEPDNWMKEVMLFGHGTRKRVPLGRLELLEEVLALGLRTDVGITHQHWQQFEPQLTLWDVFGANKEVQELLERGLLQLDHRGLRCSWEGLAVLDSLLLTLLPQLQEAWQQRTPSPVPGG
# UniProt P78345: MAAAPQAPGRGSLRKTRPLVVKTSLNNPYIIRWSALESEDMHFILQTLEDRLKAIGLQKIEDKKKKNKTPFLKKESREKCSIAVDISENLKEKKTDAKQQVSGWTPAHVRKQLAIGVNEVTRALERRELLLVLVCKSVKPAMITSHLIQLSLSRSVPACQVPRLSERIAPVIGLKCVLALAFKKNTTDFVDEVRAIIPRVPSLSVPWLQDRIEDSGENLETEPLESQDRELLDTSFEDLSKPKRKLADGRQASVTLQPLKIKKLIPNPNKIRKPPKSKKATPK
# UniProt Q8N5L8: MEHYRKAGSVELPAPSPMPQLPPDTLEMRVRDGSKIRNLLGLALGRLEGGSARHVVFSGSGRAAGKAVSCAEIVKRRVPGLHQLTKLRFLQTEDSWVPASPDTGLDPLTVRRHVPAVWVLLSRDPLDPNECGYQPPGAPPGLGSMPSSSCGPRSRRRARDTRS
# UniProt Q96T23: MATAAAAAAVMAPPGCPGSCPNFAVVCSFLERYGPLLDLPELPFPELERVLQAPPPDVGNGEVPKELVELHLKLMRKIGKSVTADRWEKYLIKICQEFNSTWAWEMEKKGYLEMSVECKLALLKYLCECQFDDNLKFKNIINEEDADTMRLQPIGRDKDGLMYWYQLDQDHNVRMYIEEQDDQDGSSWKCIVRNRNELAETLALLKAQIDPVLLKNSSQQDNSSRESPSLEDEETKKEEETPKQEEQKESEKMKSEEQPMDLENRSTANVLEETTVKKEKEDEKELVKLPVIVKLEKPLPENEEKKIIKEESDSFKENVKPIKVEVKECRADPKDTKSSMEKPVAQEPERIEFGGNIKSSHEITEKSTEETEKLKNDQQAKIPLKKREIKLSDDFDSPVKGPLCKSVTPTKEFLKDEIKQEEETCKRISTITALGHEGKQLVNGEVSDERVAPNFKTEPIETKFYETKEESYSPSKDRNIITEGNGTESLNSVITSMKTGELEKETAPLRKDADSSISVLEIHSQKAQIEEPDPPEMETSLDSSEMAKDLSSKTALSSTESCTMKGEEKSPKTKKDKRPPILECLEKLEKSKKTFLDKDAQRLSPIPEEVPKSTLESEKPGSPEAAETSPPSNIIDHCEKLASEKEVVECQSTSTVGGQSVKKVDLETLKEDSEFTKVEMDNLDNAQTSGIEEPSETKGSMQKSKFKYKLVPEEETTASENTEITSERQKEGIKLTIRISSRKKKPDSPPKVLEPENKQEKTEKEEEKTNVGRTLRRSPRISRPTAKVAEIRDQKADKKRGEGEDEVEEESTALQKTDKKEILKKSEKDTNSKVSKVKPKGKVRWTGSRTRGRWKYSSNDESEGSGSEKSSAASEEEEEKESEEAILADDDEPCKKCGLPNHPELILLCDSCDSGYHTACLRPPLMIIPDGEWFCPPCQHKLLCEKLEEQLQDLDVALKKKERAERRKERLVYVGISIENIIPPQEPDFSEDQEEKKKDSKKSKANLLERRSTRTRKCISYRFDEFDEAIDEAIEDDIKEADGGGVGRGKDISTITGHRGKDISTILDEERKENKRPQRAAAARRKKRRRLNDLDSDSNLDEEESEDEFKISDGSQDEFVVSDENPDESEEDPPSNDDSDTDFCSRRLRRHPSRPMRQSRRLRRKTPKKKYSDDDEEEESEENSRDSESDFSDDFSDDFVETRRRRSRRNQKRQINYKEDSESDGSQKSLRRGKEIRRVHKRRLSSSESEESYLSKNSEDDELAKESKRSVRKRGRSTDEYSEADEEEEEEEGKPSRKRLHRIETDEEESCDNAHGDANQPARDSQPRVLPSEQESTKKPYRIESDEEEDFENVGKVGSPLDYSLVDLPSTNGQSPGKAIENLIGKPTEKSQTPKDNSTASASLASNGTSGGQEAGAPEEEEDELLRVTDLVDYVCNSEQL
# UniProt P51812, whole entry, looked up: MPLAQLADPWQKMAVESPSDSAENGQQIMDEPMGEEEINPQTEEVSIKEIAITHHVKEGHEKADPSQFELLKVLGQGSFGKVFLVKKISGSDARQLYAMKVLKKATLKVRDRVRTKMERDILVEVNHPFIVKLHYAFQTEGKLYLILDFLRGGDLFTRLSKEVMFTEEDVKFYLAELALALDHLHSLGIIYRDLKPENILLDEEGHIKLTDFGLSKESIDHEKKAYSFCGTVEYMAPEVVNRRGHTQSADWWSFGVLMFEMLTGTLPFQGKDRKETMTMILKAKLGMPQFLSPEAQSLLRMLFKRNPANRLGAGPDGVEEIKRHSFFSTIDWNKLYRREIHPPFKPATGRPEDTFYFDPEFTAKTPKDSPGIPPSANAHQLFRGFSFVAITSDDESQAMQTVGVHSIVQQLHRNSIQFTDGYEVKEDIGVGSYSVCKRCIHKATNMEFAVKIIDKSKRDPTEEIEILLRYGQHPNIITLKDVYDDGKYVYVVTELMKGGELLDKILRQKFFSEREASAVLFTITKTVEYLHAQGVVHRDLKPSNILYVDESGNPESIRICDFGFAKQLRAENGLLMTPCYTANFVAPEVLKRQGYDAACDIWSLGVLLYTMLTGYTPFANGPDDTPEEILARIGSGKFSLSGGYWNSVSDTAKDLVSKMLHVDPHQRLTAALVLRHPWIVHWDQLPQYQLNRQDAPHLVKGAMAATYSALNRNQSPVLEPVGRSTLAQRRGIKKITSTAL
# UniProt P28702: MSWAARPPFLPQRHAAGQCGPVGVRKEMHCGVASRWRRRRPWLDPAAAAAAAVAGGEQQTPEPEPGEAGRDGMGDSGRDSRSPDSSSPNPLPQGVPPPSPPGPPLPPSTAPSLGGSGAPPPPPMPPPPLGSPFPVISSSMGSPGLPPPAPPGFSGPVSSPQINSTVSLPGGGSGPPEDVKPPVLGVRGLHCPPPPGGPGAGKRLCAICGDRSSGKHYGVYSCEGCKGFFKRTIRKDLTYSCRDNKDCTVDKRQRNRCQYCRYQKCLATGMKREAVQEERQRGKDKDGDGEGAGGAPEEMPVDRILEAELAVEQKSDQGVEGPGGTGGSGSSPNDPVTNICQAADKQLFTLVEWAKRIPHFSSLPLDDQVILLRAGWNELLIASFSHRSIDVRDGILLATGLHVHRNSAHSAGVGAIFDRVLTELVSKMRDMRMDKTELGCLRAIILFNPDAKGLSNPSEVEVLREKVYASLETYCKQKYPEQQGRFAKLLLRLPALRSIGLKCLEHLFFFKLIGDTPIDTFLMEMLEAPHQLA
# UniProt Q9Y3A4: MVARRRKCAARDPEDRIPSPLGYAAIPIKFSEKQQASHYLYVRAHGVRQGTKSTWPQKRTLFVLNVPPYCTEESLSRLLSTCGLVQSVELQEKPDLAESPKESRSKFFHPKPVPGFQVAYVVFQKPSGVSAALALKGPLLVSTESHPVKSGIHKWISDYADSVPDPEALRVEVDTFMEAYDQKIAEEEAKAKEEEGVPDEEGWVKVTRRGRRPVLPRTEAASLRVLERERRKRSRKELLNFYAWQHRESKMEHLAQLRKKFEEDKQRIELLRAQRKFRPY
# UniProt Q96FQ6: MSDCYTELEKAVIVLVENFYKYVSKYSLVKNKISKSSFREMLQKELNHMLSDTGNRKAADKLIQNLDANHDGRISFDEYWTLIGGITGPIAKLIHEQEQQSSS
# The other results are listed elsewhere or left out.
# Compound: CC1=C(C2=C(C=C1)C(=O)C3=CC=CC=C3N2CCCN)C
# Assay: log2 fold change, soluble protein after heating vs DMSO (PISA); higher = thermal stabilisation; K562 lysate, 10 uM; active = over 0.2 and 3.5 SD of the protein, either way, in both replicates (recomputed)
# Method in brief: (§1)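 Soluble protein was defined as the supernatant remaining after 21,000xg for 90 min, following pooling of heated aliquots and adjustment to 0.5% NP-40 at 4°C. Before that, crude K562 extract at 1 mg/mL protein in PBS pH 7.4 with 1 mM MgCl2 was treated with 10 μM compound for 30 min and heated for 3 min across 48°C-58°C. Quantification used TMTpro 16plex LC-MS/MS with channel sums equalised, and values are log-two fold changes in thermal stability relative to solvent controls from duplicates.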
row,Target,log2 fold change
1,RPS24 isoform 4 (UniProt P62847),inactive: -0.102
2,RRN3 (UniProt Q9NYV6),inactive: -0.05
3,S100A10 (UniProt P60903),inactive: 0.838
4,RUFY3 isoform 2 (UniProt Q7L099),inactive: -0.08
5,RTL10 (UniProt Q7L3V2),inactive: 0.118
6,RPS6KA1 (UniProt Q15418),inactive: -0.035
7,RUVBL1 (UniProt Q9Y265),inactive: -0.01

# Compound: CC1=C(C=C(C=C1)NC(=O)C2=CC(=CC=C2)C(C)(C)C#N)NC3=CC4=C(C=C3)N=CN(C4=O)C
# Assay: as above
# Method in brief: as §1
row,Target,log2 fold change
1,RPS27L (UniProt Q71UM5),inactive: 0.007
2,S100A11 (UniProt P31949),inactive: 0.058
3,RTCA (UniProt O00442),inactive: 0.047
4,S100A2 (UniProt P29034),inactive: 0.319
5,RSRC2 (UniProt Q7L4I2),inactive: -0.028
6,RYR1 (UniProt P21817),inactive: 0.195
7,RSAD1 (UniProt Q9HA92),inactive: -0.021
8,RPP14 (UniProt O95059),inactive: 0.058
9,RPS26 (UniProt P62854),inactive: 0.033
10,RPP38 (UniProt P78345),inactive: 0.012
11,RPUSD4 (UniProt Q96CM3),inactive: -0.032
12,RWDD2B (UniProt P57060),inactive: -0.109
13,RREB1 isoform 2 (UniProt Q92766),inactive: 0.073
14,RPP25L (UniProt Q8N5L8),inactive: 0.064
15,RSF1 (UniProt Q96T23),inactive: -0.067
16,RPS6KA3 (UniProt P51812),inactive: -0.061
17,RXRB isoform 3 (UniProt P28702),inactive: 0.011
18,RSBN1L (UniProt Q6PCB5),inactive: 0.026
19,RPN2 (UniProt P04844),inactive: -0.011
20,RPS2 (UniProt P15880),inactive: 0.003
21,RPS3A (UniProt P61247),inactive: -0.052
22,RRP7A (UniProt Q9Y3A4),inactive: -0.051
23,RPS24 isoform 4 (UniProt P62847),inactive: 0.008
24,RRN3 (UniProt Q9NYV6),inactive: 0.032
25,S100A10 (UniProt P60903),inactive: -0.232
26,RUFY3 isoform 2 (UniProt Q7L099),inactive: 0.02
27,RTL10 (UniProt Q7L3V2),inactive: -0.075
28,RPS6KA1 (UniProt Q15418),inactive: -0.043
29,RUVBL1 (UniProt Q9Y265),inactive: -0.005
30,S100A16 (UniProt Q96FQ6),inactive: -0.004
